Results taken from PMC8494705.
No constants are given. Whether binding was seen depends on the method and setting.

Target: Sucrose phosphorylase from Leuconostoc mesenteroides ATCC 12,291 (LmSPase), wild type (Leuconostoc mesenteroides ATCC 12,291) (UniProt Q59495)
Assay: SEC; purified wild-type LmSPase on Superdex 200 10/300 GL; molecular weight calculated from the standard curve of marker proteins; apparent 63.4 kDa against theoretical 56.8 kDa; both purified

binding: no binding
B1: Sucrose phosphorylase from Leuconostoc mesenteroides ATCC 12,291 (LmSPase), wild type (enzyme, UniProt Q59495 1-490)
chain: MEIQNKAMLITYADSLGKNLKDVHQVLKEDIGDAIGGVHLLPFFPSTGDRGFAPADYTRVDAAFGDWADVEALGEEYYLMFDFMINHISRESVMYQDFKKNHDDSKYKDFFIRWEKFWAKAGENRPTQADVDLIYKRKDKAPTQEITFDDGTTENLWNTFGEEQIDIDVNSAIAKEFIKTTLEDMVKHGANLIRLDAFAYAVKKVDTNDFFVEPEIWDTLNEVREILTPLKAEILPEIHEHYSIPKKINDHGYFTYDFALPMTTLYTLYSGKTNQLAKWLKMSPMKQFTTLDTHDGIGVVDARDILTDDEIDYASEQLYKVGANVKKTYSSASYNNLDIYQINSTYYSALGNDDAAYLLSRVFQVFAPGIPQIYYVGLLAGENDIALLESTKEGRNINRHYYTREEVKSEVKRPVVANLLKLLSWRNESPAFDLAGSITVDTPTDTTIVVTRQDENGQNKAVLTADAANKTFEIVENGQTVMSSDNLTQN
